{"source": "paper PMC7819943", "about": "“Rice protein-binding microarrays: a tool to detect cis-acting elements near promoter regions in rice”", "note": "Some of the results follow.", "data": [{"target": "T1, OsSMF1 (Oryza sativa, UniProt Q6ZLB0 1-436)", "T1 sequence": "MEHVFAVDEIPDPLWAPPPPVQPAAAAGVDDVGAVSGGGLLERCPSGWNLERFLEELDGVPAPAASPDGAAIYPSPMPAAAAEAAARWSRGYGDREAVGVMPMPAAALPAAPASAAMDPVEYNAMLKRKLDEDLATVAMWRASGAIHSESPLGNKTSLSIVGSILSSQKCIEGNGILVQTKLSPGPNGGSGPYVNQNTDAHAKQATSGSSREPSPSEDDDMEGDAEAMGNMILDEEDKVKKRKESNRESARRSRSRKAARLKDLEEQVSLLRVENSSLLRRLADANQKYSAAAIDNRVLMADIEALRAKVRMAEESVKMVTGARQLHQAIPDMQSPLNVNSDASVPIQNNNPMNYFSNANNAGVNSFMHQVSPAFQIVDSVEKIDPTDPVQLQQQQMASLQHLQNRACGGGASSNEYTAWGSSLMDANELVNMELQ", "experiment": "protein-binding microarray (RPBM); PBS, 2% BSA, 51.3 ng/ul salmon testes DNA, 50 uM zinc acetate, 200 nM TF, 25 C, 1 h; high values mean tight binding", "conditions": "protein: recombinant; tags: N-terminal polyhistidine and DsRed monomer fusion (pET32a); chain copies: 2; label: CyDye5-dUTP incorporated in the synthesized complementary strand; 3' TTTTT single-stranded linker to array surface; dsDNA, one strand shown", "summary_of_the_method": "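A custom Agilent array was converted to double-stranded form by primer extension with Cy5-dUTP and blocked with 2% BSA. Protein at 200 nM in PBS with 2% BSA, salmon testes DNA and 50 µM zinc acetate was applied for 1 h at 25 °C, followed by washing. The proteins were polyhistidine–DsRed N-terminal fusions of transcription factors, expressed in E. coli BL21-CodonPlus and Ni–NTA-purified. The binding signal is per-feature fluorescence intensity (arbitrary units) from an Axon 4000B scanner.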", "values": [{"sequence": "ACTATCATCATCTTCTACGTGGTAAGAATCGCATGATATACGGAGTCACCTAGTGCAG", "binding signal": "3750 fluorescence intensity (a.u.)"}, {"sequence": "AGTAGTAGTTTAAAGGAGTATATCACGTCGCTGGTCCCCGCGGAGTCACCTAGTGCAG", "binding signal": "3160 fluorescence intensity (a.u.)"}, {"sequence": "GACAACGACGAGCTGCTGCGCCCACTCGCCGTACATGGCGCGGAGTCACCTAGTGCAG", "binding signal": "3140 fluorescence intensity (a.u.)"}, {"sequence": "CGACTGGTGACGACGACCGGAGGGCCTCCTCCTCCCTTCCCGGAGTCACCTAGTGCAG", "binding signal": "3360 fluorescence intensity (a.u.)"}, {"sequence": "TTGGTAAACCTATAGTCATGTCTATGTGTGCATCTGTTGCCGGAGTCACCTAGTGCAG", "binding signal": "4110 fluorescence intensity (a.u.)"}, {"sequence": "AATAGTTAAATTAGGTTTGCTGTCGATGTCGCATACTCCGCGGAGTCACCTAGTGCAG", "binding signal": "20800 fluorescence intensity (a.u.)"}, {"sequence": "CAAAACAGCCGCGTTTTGGCTCACTAGTCACTTGTTTGACCGGAGTCACCTAGTGCAG", "binding signal": "3470 fluorescence intensity (a.u.)"}, {"sequence": "CAGAAATTCCATATGCCATATGTTAGCTTATGTCCAATTGCGGAGTCACCTAGTGCAG", "binding signal": "3150 fluorescence intensity (a.u.)"}, {"sequence": "AATCTTTGATGATACACTATTATGTCTGGTACTGAGATTGCGGAGTCACCTAGTGCAG", "binding signal": "3390 fluorescence intensity (a.u.)"}, {"sequence": "CCAAGCCGTCGTCGCGTTCACACACGCGCACCCTCTCTGCCGGAGTCACCTAGTGCAG", "binding signal": "3600 fluorescence intensity (a.u.)"}, {"sequence": "TCATTCCATACGCGACCGCAACAGTCATTTTGAGTTAGAACGGAGTCACCTAGTGCAG", "binding signal": "3960 fluorescence intensity (a.u.)"}, {"sequence": "TTTTAAGGGGCAAATCTTACCAACTTTTACTAGCGTGTCACGGAGTCACCTAGTGCAG", "binding signal": "3680 fluorescence intensity (a.u.)"}, {"sequence": "GTACATTCTCATGCACCGGTGACCGATGCACTGACTGGTCCGGAGTCACCTAGTGCAG", "binding signal": "3140 fluorescence intensity (a.u.)"}, {"sequence": "TTGGCCTCTAACCTCACTTCATAGTCATCAGTCATCACTTCGGAGTCACCTAGTGCAG", "binding signal": "5860 fluorescence intensity (a.u.)"}, {"sequence": "CTACGCCGCGTACGACGTCGACGCGTGGAACGGCACCGACCGGAGTCACCTAGTGCAG", "binding signal": "3430 fluorescence intensity (a.u.)"}, {"sequence": "TTCACAGCAGAAACCCATAATTTTCCATGTGCTGTGGCACCGGAGTCACCTAGTGCAG", "binding signal": "3450 fluorescence intensity (a.u.)"}, {"sequence": "ACTCTATTTAGATATTTTCCCACGCATCCGTCTCCTCCTCCGGAGTCACCTAGTGCAG", "binding signal": "3470 fluorescence intensity (a.u.)"}, {"sequence": "TTGGCTGAGCTACTCCATATCTCCCACGCGAGTCACAAGACGGAGTCACCTAGTGCAG", "binding signal": "37200 fluorescence intensity (a.u.)"}, {"sequence": "CCAGTTCATCCACACGTGTGTAGTCCGTTTGTTGGTTGGTCGGAGTCACCTAGTGCAG", "binding signal": "5490 fluorescence intensity (a.u.)"}, {"sequence": "ACTACTTCCTCCGTTTCACGATGTAAGACTTTCTAACATTCGGAGTCACCTAGTGCAG", "binding signal": "3460 fluorescence intensity (a.u.)"}, {"sequence": "AAGAAATCAATGACCTAGTGCAGCTGGGAGGTTTACGGCACGGAGTCACCTAGTGCAG", "binding signal": "15100 fluorescence intensity (a.u.)"}, {"sequence": "TATTCGGTGCTACAGTTGAGTAGACACAGCTGTTTGGCTGCGGAGTCACCTAGTGCAG", "binding signal": "3550 fluorescence intensity (a.u.)"}, {"sequence": "GAAACTCAACACGACGAAGCCGCGGCCCGCGGAAGAGGTCCGGAGTCACCTAGTGCAG", "binding signal": "17900 fluorescence intensity (a.u.)"}, {"sequence": "GGAGGGCACGCACGCACAGATCCCTCCCCTCTCCTCGCTGCGGAGTCACCTAGTGCAG", "binding signal": "3390 fluorescence intensity (a.u.)"}, {"sequence": "AAATGCCCCTGTCTCCACCTCACTGACATATGGGCCCTGTCGGAGTCACCTAGTGCAG", "binding signal": "5980 fluorescence intensity (a.u.)"}, {"sequence": "CGAACGAGAATTCATGGAATCCAAGAAAAGAGACACGTGTCGGAGTCACCTAGTGCAG", "binding signal": "5610 fluorescence intensity (a.u.)"}, {"sequence": "AAATGGTCGAAAAGTCAACAGCGTCATACATTGAAATACGCGGAGTCACCTAGTGCAG", "binding signal": "3900 fluorescence intensity (a.u.)"}, {"sequence": "CCGGCACTGCCTACGTTTCTGCGCACGTCAGGATGTCGTACGGAGTCACCTAGTGCAG", "binding signal": "7370 fluorescence intensity (a.u.)"}, {"sequence": "GATTGGGTTGGGTAGAGCGGCCACACTATTGCGGAATTTCCGGAGTCACCTAGTGCAG", "binding signal": "3640 fluorescence intensity (a.u.)"}, {"sequence": "TTATTTTGGAACTGGACCTATCTAATTTCTCCTAGTCAGACGGAGTCACCTAGTGCAG", "binding signal": "3780 fluorescence intensity (a.u.)"}, {"sequence": "ATTTAAGCGCTTTCTCTGAATTTTCAGATATAAACATCCCCGGAGTCACCTAGTGCAG", "binding signal": "3990 fluorescence intensity (a.u.)"}, {"sequence": "CTTGTTCGTCGTCTCTACAGCCTACAATGAGACATCTGAACGGAGTCACCTAGTGCAG", "binding signal": "3690 fluorescence intensity (a.u.)"}, {"sequence": "CCAGATCCGTGCGTCACCTGCGCGCACAGGCGCACAGGCGCGGAGTCACCTAGTGCAG", "binding signal": "35400 fluorescence intensity (a.u.)"}, {"sequence": "CTTGTTTCATTAAGGGAAACGCTGACGACTACTTCGTCCGCGGAGTCACCTAGTGCAG", "binding signal": "3510 fluorescence intensity (a.u.)"}, {"sequence": "GCTATGAGGCCCATTTCGTCGTCGTCGTCGTCGTCGTCCCCGGAGTCACCTAGTGCAG", "binding signal": "3590 fluorescence intensity (a.u.)"}, {"sequence": "GAGGACGCCGACGCTGAAGATCACGTGGAGGCCCATGGCGCGGAGTCACCTAGTGCAG", "binding signal": "4820 fluorescence intensity (a.u.)"}, {"sequence": "AAGATAAGTCATTGTGTGACATGTCCTTTGGTAAATTTCTCGGAGTCACCTAGTGCAG", "binding signal": "3830 fluorescence intensity (a.u.)"}, {"sequence": "CATCGGACGGCCCATGTAGCCCAACTCCTCCGCTGCCACGCGGAGTCACCTAGTGCAG", "binding signal": "3410 fluorescence intensity (a.u.)"}, {"sequence": "CATATCTATCTTACGTGGACGCCACAAGGTTCTATAGGCTCGGAGTCACCTAGTGCAG", "binding signal": "8710 fluorescence intensity (a.u.)"}, {"sequence": "GGCATTTCTTAGAAATTTCATATGATCTAACAAATTGTTACGGAGTCACCTAGTGCAG", "binding signal": "3190 fluorescence intensity (a.u.)"}, {"sequence": "TACAGGCCCTGTATACCTGGATGGGCCTACATTGAAGCCCCGGAGTCACCTAGTGCAG", "binding signal": "4000 fluorescence intensity (a.u.)"}, {"sequence": "TCTAGCTGATTCACGGAAAATCAATCAAATGTGTATGCTCCGGAGTCACCTAGTGCAG", "binding signal": "3360 fluorescence intensity (a.u.)"}, {"sequence": "CATAGATGGGCTCATCAGTAATGCTCCATATCAACACGACCGGAGTCACCTAGTGCAG", "binding signal": "35200 fluorescence intensity (a.u.)"}, {"sequence": "CGACTCGACGTCGTCGTCATTCTTCATGGCTGGGTGGGTTCGGAGTCACCTAGTGCAG", "binding signal": "3670 fluorescence intensity (a.u.)"}, {"sequence": "TACCAGTGTCACGCAGTGACGCAATGGATCATGCTATCCACGGAGTCACCTAGTGCAG", "binding signal": "4450 fluorescence intensity (a.u.)"}, {"sequence": "TGAGTGAATACACAGTACTATGACGACGATAAGGTTGGGGCGGAGTCACCTAGTGCAG", "binding signal": "32700 fluorescence intensity (a.u.)"}, {"sequence": "TTCTATCTGTACGTGTACATGACAGTGAGATTTTATTAAACGGAGTCACCTAGTGCAG", "binding signal": "5140 fluorescence intensity (a.u.)"}, {"sequence": "GGTCCATATGTGGAGCCCACATGTCAGGGACCCGTGTGGCCGGAGTCACCTAGTGCAG", "binding signal": "3460 fluorescence intensity (a.u.)"}, {"sequence": "GACAATTACTTAGTCCTCACCTACCGTCGACCTCACACGTCGGAGTCACCTAGTGCAG", "binding signal": "3220 fluorescence intensity (a.u.)"}, {"sequence": "ATCATTTGCTTTTGTTGCAAATGACGTGCAAAACTACAAACGGAGTCACCTAGTGCAG", "binding signal": "4790 fluorescence intensity (a.u.)"}, {"sequence": "GCCGGCTCGATCTACGAGCCGGCCGTGTTTCGAAATAACCCGGAGTCACCTAGTGCAG", "binding signal": "13900 fluorescence intensity (a.u.)"}, {"sequence": "AGATTAGGGACTAAATTTTAGTCCATGTCACATCGAATGTCGGAGTCACCTAGTGCAG", "binding signal": "3920 fluorescence intensity (a.u.)"}, {"sequence": "ATCATGTGAGATCTTGTTGTAAAGATTTAATTCTTACAAACGGAGTCACCTAGTGCAG", "binding signal": "19300 fluorescence intensity (a.u.)"}, {"sequence": "ATTGCCAGTTACAGCTATCACACGTACTTATACCTCCGCCCGGAGTCACCTAGTGCAG", "binding signal": "4550 fluorescence intensity (a.u.)"}]}]}
